# The other results are listed elsewhere or left out. Many values rest on one well or one pass, so single values are uncertain.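 The apoptosis fraction was the count of cleaved-PARP antibody-stained nuclei relative to all DNA-stained nuclei, imaged in 1,536-well plates. Screening doses were set so most cells survived, and baseline and induced cleaved-PARP levels vary greatly across cell lines.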
# Test system: C32
# Assay: cleaved PARP positive nuclei fraction relative to DMSO control; melanoma cells; higher = more apoptosis
# Conditions: library dose: low library concentration; 72 h
row,SMILES,cleaved PARP positive nuclei fraction [%]
1,"Cn1cc(C2=C(c3cn(C4CCN(Cc5ccccn5)CC4)c4ccccc34)C(=O)NC2=O)c2ccccc21 [Enzastaurin] + C#Cc1cccc(Nc2ncnc3cc(OCCOC)c(OCCOC)cc23)c1 [erlotinib] (first compound 0.8 µM, partner dose 0.8 µM)",83.8
2,"C[C@]12O[C@H](C[C@]1(O)CO)n1c3ccccc3c3c4c(c5c6ccccc6n2c5c31)CNC4=O [Lestaurtinib] + CC(=O)O[C@@]12CO[C@@H]1C[C@H](O)[C@@]1(C)C(=O)[C@H](O)C3=C(C)[C@@H](OC(=O)[C@H](O)[C@@H](NC(=O)OC(C)(C)C)c4ccccc4)C[C@@](O)([C@@H](OC(=O)c4ccccc4)[C@H]21)C3(C)C [Docetaxel] (first compound 0.004 µM, partner dose 0.0001 µM)",71.2
3,"C[C@]12O[C@H](C[C@]1(O)CO)n1c3ccccc3c3c4c(c5c6ccccc6n2c5c31)CNC4=O [Lestaurtinib] + CS(=O)(=O)c1ccc(C(=O)Nc2ccc(Cl)c(-c3ccccn3)c2)c(Cl)c1 [vismodegib] (first compound 0.004 µM, partner dose 1 µM)",296
4,"N.N.[Cl][Pt][Cl] [cisplatin] + C=CCNC1=C2C[C@@H](C)C[C@H](OC)[C@H](O)[C@@H](C)/C=C(\C)[C@H](OC(N)=O)[C@@H](OC)/C=C\C=C(/C)C(=O)NC(=CC1=O)C2=O [Tanespimycin] (first compound 1.6 µM, partner dose 0.002 µM)",80
5,"O=C(/C=C/c1cccnc1)NCCCCC1CCN(C(=O)c2ccccc2)CC1 + C[C@]12O[C@H](C[C@]1(O)CO)n1c3ccccc3c3c4c(c5c6ccccc6n2c5c31)CNC4=O [Lestaurtinib] (first compound 0.01 µM, partner dose 0.004 µM)",50.4
6,"N.N.[Cl][Pt][Cl] [cisplatin] + OCc1c[nH]c2ccccc12 [Indole-3-carbinol] (first compound 1.6 µM, partner dose 0.8 µM)",37.1
7,"Cn1cc(C2=C(c3cn(C4CCN(Cc5ccccn5)CC4)c4ccccc34)C(=O)NC2=O)c2ccccc21 [Enzastaurin] + CO[C@H]1C[C@@H]2CC[C@@H](C)[C@@](O)(O2)C(=O)C(=O)N2CCCC[C@H]2C(=O)O[C@H]([C@H](C)C[C@@H]2CC[C@@H](OCCO)[C@H](OC)C2)CC(=O)[C@H](C)/C=C(\C)[C@@H](O)[C@@H](OC)C(=O)[C@H](C)C[C@H](C)/C=C/C=C/C=C/1C [everolimus] (first compound 0.8 µM, partner dose 0.02 µM)",76.7
8,"O=C(/C=C/c1cccnc1)NCCCCC1CCN(C(=O)c2ccccc2)CC1 + C[As](C)SC[C@H](NC(=O)CC[C@H](N)C(=O)O)C(=O)NCC(=O)O [Darinaparsin] (first compound 0.01 µM, partner dose 0.4 µM)",162
9,"OCc1c[nH]c2ccccc12 [Indole-3-carbinol] + C[As](C)SC[C@H](NC(=O)CC[C@H](N)C(=O)O)C(=O)NCC(=O)O [Darinaparsin] (first compound 0.8 µM, partner dose 0.4 µM)",79.9
10,"Nc1ccn([C@@H]2O[C@H](CO)[C@@H](O)C2(F)F)c(=O)n1 [gemcitabine] + C[As](C)SC[C@H](NC(=O)CC[C@H](N)C(=O)O)C(=O)NCC(=O)O [Darinaparsin] (first compound 0.0004 µM, partner dose 0.4 µM)",69.1
11,"Cn1c(=O)n(-c2ccc(C(C)(C)C#N)cc2)c2c3cc(-c4cnc5ccccc5c4)ccc3ncc21 + C[As](C)SC[C@H](NC(=O)CC[C@H](N)C(=O)O)C(=O)NCC(=O)O [Darinaparsin] (first compound 0.004 µM, partner dose 0.4 µM)",79.9
12,"N.N.[Cl][Pt][Cl] [cisplatin] + Cc1nc(Nc2ncc(C(=O)Nc3c(C)cccc3Cl)s2)cc(N2CCN(CCO)CC2)n1 [dasatanib] (first compound 1.6 µM, partner dose 0.004 µM)",41.4
13,"N.N.[Cl][Pt][Cl] [cisplatin] + C[C@@H](Oc1cc(-c2cnn(C3CCNCC3)c2)cnc1N)c1c(Cl)ccc(F)c1Cl [Crizotinib] (first compound 1.6 µM, partner dose 0.2 µM)",90.4

# Source: the supplement of paper PMC4604168 (melanoma cell lines)
